About 910 (0.23%) of roughly 390,000 compounds were called active. The inconclusive results got no clear call from the source; some entries with a clear call stand among them for comparison. Calls come from the whole dose curve; as a rule, active = well fitted inhibition curve with a large enough effect; inconclusive = small, poorly fitted or top-dose-only effect; inactive = no such curve, though single readings can be large or run the other way. Where the call is inconclusive, the potency comes from a doubtful curve fit.
Molecular target: Ubiquitin carboxyl-terminal hydrolase 1 (Homo sapiens) (UniProt O94782)
Assay: Inhibitors of USP1/UAF1: Primary Screen; note: nearly all actives have a fitted effect of over 60% in size
Conditions: recombinant USP1/UAF1, Ub-Rhodamine cleavage fluorescence; series mostly up to 57.1 µM
In short: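 1 nM enzyme complex + cpd, 15 min RT; start with Ub-Rho 150nM final; kinetic fluorescence ex 480/em 540, 6 reads q60 s. Buffer 50mM HEPES pH 7.8, 0.5mM EDTA, 0.1 mg/ml BSA, 1mM TCEP, 0.01% Tween-20.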
Potency is the fitted concentration of half-maximal effect.

The chains behind the UniProt entries cited, without tags or fusion partners. Where a name states a change or a piece, a line headed by the entry shows the natural chain unless it says otherwise.
UniProt O94782: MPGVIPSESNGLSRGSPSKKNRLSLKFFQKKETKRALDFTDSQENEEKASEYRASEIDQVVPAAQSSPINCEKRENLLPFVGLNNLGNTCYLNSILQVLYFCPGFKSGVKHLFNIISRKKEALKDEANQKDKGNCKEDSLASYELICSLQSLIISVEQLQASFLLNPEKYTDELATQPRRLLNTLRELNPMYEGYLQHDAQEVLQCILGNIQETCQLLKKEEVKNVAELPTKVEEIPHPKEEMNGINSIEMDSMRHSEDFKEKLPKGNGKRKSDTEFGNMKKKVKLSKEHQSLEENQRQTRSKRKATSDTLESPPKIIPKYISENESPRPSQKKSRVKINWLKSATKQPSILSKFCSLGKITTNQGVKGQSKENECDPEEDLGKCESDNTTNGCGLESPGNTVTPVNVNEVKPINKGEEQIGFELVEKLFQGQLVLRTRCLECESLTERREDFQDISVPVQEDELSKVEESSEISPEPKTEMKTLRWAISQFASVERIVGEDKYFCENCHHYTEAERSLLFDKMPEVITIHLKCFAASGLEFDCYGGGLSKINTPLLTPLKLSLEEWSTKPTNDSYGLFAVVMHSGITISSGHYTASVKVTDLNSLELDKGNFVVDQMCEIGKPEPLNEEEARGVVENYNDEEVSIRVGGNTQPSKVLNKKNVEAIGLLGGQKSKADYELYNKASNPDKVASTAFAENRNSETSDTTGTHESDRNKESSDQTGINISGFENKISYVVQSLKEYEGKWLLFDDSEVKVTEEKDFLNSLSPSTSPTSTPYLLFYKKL

SMILES	Potency
CC(C)CCOCc1nc2sc3c(c2c(=O)[nH]1)CCC(C)C3 (stereo not drawn)	inconclusive: 50.1 µM [inhibitor, partial curve, poor fit]
O=C1N/C(=N\S(=O)(=O)c2ccccc2)S/C1=C\c1cc([N+](=O)[O-])ccc1O	inconclusive: 10 µM [inhibitor, partial curve]
CC(=O)c1ccc(NC(=O)C2CCN(S(=O)(=O)c3cccc4cccnc34)CC2)cc1	inconclusive: 0.251 µM [inhibitor, full curve, poor fit]
Clc1cccc(-n2ncc3c(NCCc4ccccc4)ncnc32)c1	inconclusive: 39.8 µM [inhibitor, partial curve, poor fit]
CCOc1ccc(NC(=O)CSc2nc(-c3cccs3)cc(C(F)(F)F)c2C#N)cc1	inconclusive: 5.62 µM [inhibitor, partial curve]
CCn1c(SCC(=O)Nc2ccc3c(c2)OCO3)nnc1C(C)C	inconclusive: 31.6 µM [inhibitor, partial curve]
COc1cc(C(c2c(C)[nH][nH]c2=O)c2c(C)[nH][nH]c2=O)cc([N+](=O)[O-])c1O	inconclusive: 39.8 µM [inhibitor, partial curve, poor fit]
O=P(c1ccccc1)(c1ccccc1)c1nc(-c2ccc(Cl)cc2)oc1N1CCOCC1	inconclusive: 50.1 µM [inhibitor, partial curve, poor fit]
Cc1ccc(C)c(-c2csc(N)c2C(=O)OC(C)C)c1	inconclusive: 31.6 µM [inhibitor, partial curve]
CCOC(=O)c1ccc(NC(=O)c2c(NC(=O)CCC(=O)O)sc3c2CCCCC3)cc1	inconclusive: 31.6 µM [inhibitor, partial curve]
O=c1cc(-c2ccc(O)cc2)oc2c(O)c(O)c(O)c(O)c12	active: 10 µM
COC(=O)c1cc(S(=O)(=O)Nc2nn(C)c3cccc(F)c23)oc1C	inactive
Cc1ccc(NC2=C(N3CCOCC3)C(=O)c3ccccc3C2=O)cc1	active: 39.8 µM
O=C(CC1SC(=O)N(c2ccccc2)C1=O)Nc1ccc(Br)cc1 (stereo not drawn)	inconclusive: 50.1 µM [inhibitor, partial curve, poor fit]
O=C(ONC1=NCCCCC1)c1cccc([N+](=O)[O-])c1	inconclusive: 4.47 µM [inhibitor, single point]
CC(C)(C)c1ccc(OCCCCCCN2CCNCC2)cc1	inactive
COc1ccc(CCNC(=O)c2ccc3c(c2)sc2nc(-c4ccc(C)cc4)cn23)cc1OC	inconclusive: 7.08 µM [inhibitor, partial curve, poor fit]
CCOC(=O)c1ccc2c(c1)C1C=CCC1C(C(=O)OCC)N2 (stereo not drawn)	inconclusive: 39.8 µM [inhibitor, partial curve, poor fit]
Cc1cccc(N2CCN(Cc3cn(C)nc3-c3ccccc3F)CC2)n1	inconclusive: 50.1 µM [inhibitor, partial curve, poor fit]
Cc1nn(CCC#N)c2nc(-c3ccccc3)cc(C(F)(F)F)c12	inactive
COc1ccccc1Nc1nc(N)nc(CSC(=S)N2CC(C)CC(C)C2)n1 (stereo not drawn)	inconclusive: 44.7 µM [inhibitor, partial curve, poor fit]

SMILES	Potency
COc1cc2c(cc1OC)C(COc1ccc3c(C)cc(=O)oc3c1)N(C(=O)c1cccc(OC)c1OC)CC2 (stereo not drawn)	inconclusive: 6.31 µM [inhibitor, single point]
CCc1nn(CCCC(=O)Nc2ccc(C)c(C)c2)c(=O)c2cc3occc3n12	inconclusive: 17.8 µM [inhibitor, partial curve, poor fit]
CC(=O)N1CCc2c(sc3nc(SCC(N)=O)n(-c4ccc(F)c(Cl)c4)c(=O)c23)C1	inactive
Cc1ccc(CN2CCSc3ccc(C(=O)Nc4cc(C)cc(C)c4)cc32)cc1	inconclusive: 7.08 µM [inhibitor, partial curve, poor fit]
c1ccc(Oc2cc(-c3ccccc3)ncn2)cc1	inactive
Clc1ccc(OCc2nc(-c3ccc(-n4cccc4)cc3)no2)cc1	inconclusive: 0.501 µM [inhibitor, full curve, poor fit]
N#Cc1nc(-c2ccccc2Cl)oc1NCC1CCCO1 (stereo not drawn)	inactive
Cc1ccc2c(n1)sc1c(=O)n(-c3cccc(C(F)(F)F)c3)nnc12	inactive
CC(=O)O[C@@H]1[C@@]2(C)O[C@H]2CC[C@]23O[C@H]2[C@H](OC3=O)C2=C(C)C(=O)O[C@@]21O	inconclusive: 0.251 µM [inhibitor, full curve, poor fit]
CCOc1ccc(NC(=O)N2CCC(CN3CCCCCC3)CC2)cc1	inconclusive: 20 µM [inhibitor, partial curve, poor fit]
NS(=O)(=O)c1ccc(CCNC(=O)c2ccc(Cl)nc2)cc1	inactive
CCn1c(-c2cc(-c3cc(OC)ccc3OC)nc3ccccc23)n[nH]c1=S	inactive
CCCn1nc2cc(C(=O)NCCc3cccs3)ccc2c1OCC	inconclusive: 44.7 µM [inhibitor, partial curve, poor fit]
COc1ccccc1NC(=O)C1=C(C)Nc2nc(SCc3ccccc3F)nn2C1c1cccnc1 (stereo not drawn)	inconclusive: 8.91 µM [inhibitor, partial curve, poor fit]
Cc1ccc(N(CC(=O)NC2CCCCC2)C(=O)c2ccc(C)s2)cc1	inconclusive: 0.398 µM [inhibitor, full curve, poor fit]
O=C(CCCn1c(=O)oc2ccccc21)N1CCc2ccccc2C1	inconclusive: 28.2 µM [inhibitor, partial curve]
COc1ccc2sc(-c3ccc(S(C)(=O)=O)cc3)c(-c3ccc4c(c3)OCCO4)c2c1	inconclusive: 4.47 µM [inhibitor, full curve, poor fit]
Clc1ccc(Nc2c(-c3cccs3)nc3ccc(Cl)cn23)cc1	inconclusive: 0.794 µM [inhibitor, full curve, poor fit]
C=CCNC(=O)c1onc(CSc2ccccc2F)c1C(=O)O	inconclusive: 2.82 µM [inhibitor, full curve, poor fit]
O=C(CCS(=O)(=O)c1ccccc1)N(Cc1cccnc1)c1nc2c(Cl)cccc2s1	inconclusive: 0.282 µM [inhibitor, full curve, poor fit]
Cc1nc([N+](=O)[O-])c(NCCCO)n1Cc1ccccc1	inconclusive: 8.91 µM [inhibitor, partial curve, poor fit]

SMILES	Potency
Cc1ccc(NC(=O)COC(=O)c2ccn(C)n2)cc1	inconclusive: 28.2 µM [inhibitor, single point]
CCN1CCN(C(c2ccc(C(F)(F)F)cc2)c2ccc3cccnc3c2O)CC1 (stereo not drawn)	inconclusive: 0.891 µM [inhibitor, full curve, poor fit]
CCN(C(=O)c1c(C)cc(=O)oc1C)c1ccc2c(c1)OCO2	inactive
COc1ccc(C(=O)N/N=C/c2ccc(OC(=O)c3cccc4ccccc34)c([N+](=O)[O-])c2)cc1	inactive
Cc1cc(C(=O)N/N=C/c2c(C)nn(-c3ccccc3)c2Cl)n[nH]1	inconclusive: 0.708 µM [inhibitor, full curve, poor fit]
O=[N+]([O-])c1cccc(/C=N/N2CCN(c3ccccn3)CC2)c1	inconclusive: 50.1 µM [inhibitor, partial curve, poor fit]
CCC(Cc1ccccc1)NC(=O)c1oc(=O)c2ccccc2c1-c1ccccc1 (stereo not drawn)	inconclusive: 14.1 µM [inhibitor, partial curve]
COC(=O)C(Sc1nc(C)cc(C)c1C#N)c1ccccc1 (stereo not drawn)	inconclusive: 50.1 µM [inhibitor, single point]
Cc1cc(-c2c(C(=O)N3CCOCC3)c(C)nn2-c2cccc(C(F)(F)F)c2)no1	inconclusive: 10 µM [inhibitor, full curve, poor fit]
Cn1c(=O)c2sccc2n2c(CCC(=O)N3CCN(c4ccccc4)CC3)nnc12	inconclusive: 6.31 µM [inhibitor, single point]
Cc1c(C(=O)NCc2ccc(Cl)cc2)sc2nc3n(c(=O)c12)CCCC3	inconclusive: 39.8 µM [inhibitor, partial curve, poor fit]
CCc1noc2nc(C)n(CC(=O)O)c(=O)c12	inconclusive: 3.98 µM [inhibitor, full curve]
CCS(=O)(=O)c1ccccc1C(=O)N(Cc1cccnc1)c1nc2cc(C)c(C)cc2s1	inconclusive: 1.12 µM [inhibitor, full curve, poor fit]
O=C(NCc1ccccc1)C1=C[C@H](c2csc3ccccc23)C[C@H](OCc2ccc(CO)cc2)O1	inactive
CCN(CC)CCCNC(=O)c1c(C)oc2ncnc(N3CCOCC3)c12	inactive
COc1ccc(-c2cc(C(=O)Nc3cc(C)ccc3O)no2)cc1OC	inconclusive: 11.2 µM [inhibitor, partial curve]
Cc1cc(F)c(F)c(C(=O)NC2CC2)c1Cl	inconclusive: 22.4 µM [inhibitor, single point]
O=S(=O)(Nc1cccc2ccccc12)c1ccccc1F	inactive
COc1ccc(-c2nc3n(n2)C(c2ccccc2F)C(C(=O)Nc2cccnc2)=C(C)N3)cc1OC (stereo not drawn)	inconclusive: 44.7 µM [inhibitor, partial curve, poor fit]
CCCC(Oc1ccc(Br)cc1)c1nc2c3cc(OC)c(OC)cc3nc(=S)n2[nH]1 (stereo not drawn)	inactive
Cc1ccc(-c2noc(CN(C3CCCCC3)S(=O)(=O)c3ccc(Cl)cc3)n2)cc1	inconclusive: 39.8 µM [inhibitor, partial curve, poor fit]

Part of the list above, with bars between the fields.
SMILES | Potency
Cc1cc(-c2c(C(=O)N3CCOCC3)c(C)nn2-c2cccc(C(F)(F)F)c2)no1 | inconclusive: 10 µM [inhibitor, full curve, poor fit]
Cn1c(=O)c2sccc2n2c(CCC(=O)N3CCN(c4ccccc4)CC3)nnc12 | inconclusive: 6.31 µM [inhibitor, single point]
Cc1c(C(=O)NCc2ccc(Cl)cc2)sc2nc3n(c(=O)c12)CCCC3 | inconclusive: 39.8 µM [inhibitor, partial curve, poor fit]
CCc1noc2nc(C)n(CC(=O)O)c(=O)c12 | inconclusive: 3.98 µM [inhibitor, full curve]
CCS(=O)(=O)c1ccccc1C(=O)N(Cc1cccnc1)c1nc2cc(C)c(C)cc2s1 | inconclusive: 1.12 µM [inhibitor, full curve, poor fit]
O=C(NCc1ccccc1)C1=C[C@H](c2csc3ccccc23)C[C@H](OCc2ccc(CO)cc2)O1 | inactive
